Results from patent publication US9186381B2, “Medicament for liver regeneration and for treatment of liver failure” (Helmholtz Zentrum Fuer Infektionsforschung GmbH, priority 2011, dated 2015).
For at least one compound, name, drawing or mass did not settle the structure.

Test system: MKK4 in the liver
Experiment: inhibition of MKK4 in vivo by small inhibitors administered to mice
Conditions: dosage efficient for in vivo inactivation of MKK4
Experimental: In the alternative to inhibition of MKK4 activity in liver tissue by inhibitory RNA, SP600125, myricitine, Genistein, or PD98059 were used for inactivating MKK4 in the liver. Generally, SP600125, myricitine, Genistein, or PD98059 were administered to mice at a dosage efficient for in vivo inactivation of MKK4. Preferably, the dosage was efficient to inactivate at least 80%, more preferably at least 90 or 95% of mean in vivo MKK4 activity.

For `Oc1c2ccccc2c2c3c(cccc13)N=N2` [SP600125], which liver regeneration is on record?
The liver regeneration was “significant increase in liver regeneration”.

And the proliferation?
Its proliferation is “increase in proliferation”.

And the “protection against induced apoptosis” value?
Its value is “protection against induced apoptosis”.
